No constants are given. Whether binding was seen depends on the method and setting. Some entries that bind do so weakly or less than the wild type.

Sequences of proteins named here, by UniProt entry; tags and fusion partners are left off. Residues count along the entry.
UniProt Q07011, residues 24-255: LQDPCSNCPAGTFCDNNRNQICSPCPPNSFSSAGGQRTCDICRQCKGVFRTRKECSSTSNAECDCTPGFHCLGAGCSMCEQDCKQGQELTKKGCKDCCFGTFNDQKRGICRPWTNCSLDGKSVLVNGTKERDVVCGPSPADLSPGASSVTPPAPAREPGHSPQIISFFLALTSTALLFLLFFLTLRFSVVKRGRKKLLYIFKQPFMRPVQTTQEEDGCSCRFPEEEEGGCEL
UniProt P41273, residues 50-254: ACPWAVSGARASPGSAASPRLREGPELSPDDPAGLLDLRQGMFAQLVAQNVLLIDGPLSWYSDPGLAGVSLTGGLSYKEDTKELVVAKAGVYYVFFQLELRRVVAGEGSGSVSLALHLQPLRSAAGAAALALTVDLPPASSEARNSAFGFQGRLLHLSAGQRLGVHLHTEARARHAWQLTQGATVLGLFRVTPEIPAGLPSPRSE

The assay concerns the target human 4-1BB on CHO-K1-Hu4-1BB cells (human) (UniProt Q07011). As to the kind of experiment: flow cytometry on cells; competition on CHO-K1-Hu4-1BB cells; biotin-labeled antibody 1.5 μg/mL mixed with human 4-1BBL 90 to 0.35 μg/mL (fourfold dilutions), 30 min; streptavidin-FITC; only the binder purified. In general terms: A flow cytometer gives signals particle by particle.

As for “human 4-1BBL (from UniProt P41273 50-254) (Fc fusion)”, the binding result is reported as “binds”.

Source of the values: article PMC9461191.
